# Source: PubChem BioAssay AID1224830 (NIAID, 2016)
# Test: 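Regulators of TLR4 signalling towards TNF-alpha in macrophage-like cells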 (primary screen)
# System: human THP-1 monocytic leukaemia cells, TNF dual-luciferase reporter clone, PMA-differentiated to macrophage-like cells
# Reagents: siRNA pool against human genes, 50 nM
# Duration: LPS for 4 h, given about 3 days after siRNA transfection
# Challenge: bacterial LPS (TLR4 ligand), 10 ng/ml
# Measured: 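TNF firefly reporter luminescence divided by renilla, normalised to the plate median, then turned into a robust z-score for each replicate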
# Direction: TNF reporter robust z-score: higher = stronger TNF reporter response to LPS
# Active means: 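a well is active when its z-score exceeds 2.8 or falls below -1.5; control wells carry no call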
# Here is one part, drawn at random, of about 18,000 reagents. Over the whole deposit, about 2,900 (16%) are marked active. 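Calls are made per well; low scores hint the gene aids the LPS response, high scores that it dampens it.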 Entries without a mark were called inactive. Reagents against one gene are numbered here. Repeated entries: four replicate wells of each siRNA pool.
The first 14 records, to show the layout:
Target gene,pool no.,TNF reporter robust z-score
STIM2,1,-0.75
STIM2,1,-0.23
STIM2,1,-1.05
STIM2,1,-0.64
H4C15,1,-0.28
H4C15,1,0.22
H4C15,1,-0.11
H4C15,1,-0.56
CLDN11,1,-1.02
CLDN11,1,-2.08 (active)
CLDN11,1,-0.95
CLDN11,1,-0.8
ZNF395,1,-0.76
ZNF395,1,-0.71

Main list, repeating the preview:
Target gene,pool no.,TNF reporter robust z-score
STIM2,1,-0.75
STIM2,1,-0.23
STIM2,1,-1.05
STIM2,1,-0.64
H4C15,1,-0.28
H4C15,1,0.22
H4C15,1,-0.11
H4C15,1,-0.56
CLDN11,1,-1.02
CLDN11,1,-2.08 (active)
CLDN11,1,-0.95
CLDN11,1,-0.8
ZNF395,1,-0.76
ZNF395,1,-0.71
ZNF395,1,-0.62
ZNF395,1,-0.36
RTN4RL1,1,0.21
RTN4RL1,1,-0.56
RTN4RL1,1,-0.49
RTN4RL1,1,-0.16
CTSV,1,0.04
CTSV,1,-0.77
CTSV,1,-0.84
CTSV,1,0.83
TXLNGY,1,-0.06
TXLNGY,1,-0.14
TXLNGY,1,0.09
TXLNGY,1,-0.56
TXLNGY,2,-0.89
TXLNGY,2,-1.01
TXLNGY,2,-0.94
TXLNGY,2,-0.88
CCDC89,1,-0.09
CCDC89,1,0.83
CCDC89,1,0.31
CCDC89,1,1.08
GPM6A,1,-1.03
GPM6A,1,0.29
GPM6A,1,-0.65
GPM6A,1,-0.62
ZNF599,1,-0.63
ZNF599,1,-1.49
ZNF599,1,-0.64
ZNF599,1,-0.66
PRKCH,1,1.56
PRKCH,1,1.43
PRKCH,1,1.41
PRKCH,1,2.41
UBE2E2,1,2.25
UBE2E2,1,1.99
UBE2E2,1,1.31
UBE2E2,1,2.65
PRSS53,1,-0.77
PRSS53,1,1.31
PRSS53,1,2.02
PRSS53,1,-0.91
TACR1,1,-1.79 (active)
TACR1,1,-1.06
TACR1,1,-1.34
TACR1,1,-0.2
LILRA3,1,-0.15
LILRA3,1,1.07
LILRA3,1,-1.1
LILRA3,1,-0.36
SIRT3,1,0.56
SIRT3,1,1.1
SIRT3,1,-0.35
SIRT3,1,0.36
PPDPFL,1,0.1
PPDPFL,1,0.28
PPDPFL,1,0.13
PPDPFL,1,0.76
H2BC7,1,-0.08
H2BC7,1,0.3
H2BC7,1,-0.21
H2BC7,1,0.18
RIN1,1,2.64
RIN1,1,-0.48
RIN1,1,0.14
RIN1,1,-1.07
PDSS2,1,0.63
PDSS2,1,0.06
PDSS2,1,-0.33
PDSS2,1,0.26
MYOM3,1,-0.34
MYOM3,1,-0.62
MYOM3,1,-0.31
MYOM3,1,-0.01
RNF121,1,3.68 (active)
RNF121,1,-0.52
RNF121,1,1.15
RNF121,1,8.71 (active)
HOXC9,1,2.08
HOXC9,1,0.57
HOXC9,1,2.06
HOXC9,1,2.21
RPGR,1,0.37
RPGR,1,0.49
RPGR,1,-0.55
RPGR,1,-0.39
OR14J1,1,-1.27
OR14J1,1,-1.05
OR14J1,1,-1.23
OR14J1,1,-1.34
F13A1,1,1.01
F13A1,1,-0.91
F13A1,1,-0.54
F13A1,1,-0.17
SHE,1,0.4
SHE,1,0.15
SHE,1,-0.7
SHE,1,0.46
